Some of the results follow.
Tested on: T1, CTL2-GFP (C. trachomatis L2/434/Bu, GFP-expressing)
T1 construct: L2/434/Bu, GFP-expressing
Design: species or system HeLa; Intracellular C. trachomatis growth in HeLa cells, bulk GFP fluorescence relative to DMSO
Conditions: bulk GFP, single well; 28.5 h, 10 µM; inhibitor

First: CN1CCC(N2CC[C@@H]3[C@H]2C(=O)NC[C@H](CCC(=O)NCc2ccc(F)cc2)N3C)CC1 [CBK289022]
Second: CCCc1nc(C(=O)NC2CC(=O)N(CCc3ccc(F)cc3)C2)cs1 (stereo not drawn) [CBK306548]
The “% of control remaining” value of the first is higher: 151.558% for the first, 107.651% for the second.

First: COc1cc(-c2nccnc2NCCc2ccccn2)cc(OC)c1OC [CBK037307]
Second: COc1ccc(C2=NN(c3ccccc3)C(c3ccc(OC)c(OC)c3C(=O)O)C2)cc1 (stereo not drawn) [CBK262679]
The “% of control remaining” value of the first is lower: 144.459% for the first, 145.493% for the second.

Compared with `Oc1cccc(OCCOc2nccnc2N2CCCC2)c1` [CBK115756], `O=C1NCCN1CCOc1nccnc1/C=C/c1ccccc1` [CBK106879] is lower in “% of control remaining” value: 138.263% for the first, 122.477% for the second.

First: Cc1ccc(N(Cc2ccccc2OC(=O)c2cccnc2)C2=NS(=O)(=O)c3ccccc32)cc1 [CBK265760]
Second: CCOC(=O)c1c(-c2ccc(-c3ccccc3)cc2)csc1NC(=O)c1ccccc1C(=O)O [CBK296096]
The “% of control remaining” value of the first is higher: 98.924% for the first, 80.983% for the second.

Compared with `CCNc1cncc(-c2ccc(F)c(Cl)c2)n1` [CBK065322], `c1csc(-c2cn3ccnc3c(NCC3CC3)n2)c1` [CBK066754] is higher in “% of control remaining” value: 93.9006% for the first, 173.578% for the second.

Compared with `COc1ccc(NC(=S)NC(=O)c2cc3c(C)nn(-c4ccccc4)c3s2)cc1[N+](=O)[O-]` [CBK265324], `CCOC(=O)c1c(NC(=O)c2cc(-c3ccc(C)c(C)c3)nc3ccccc23)sc2c1CCC(C)C2` (stereo not drawn) [CBK262627] is lower in “% of control remaining” value: 131.804% for the first, 88.1542% for the second.

Compared with `Cc1ccc(C)n1-c1cccc(C(=O)N2CCn3cnnc3C2)c1` [CBK283646], `COc1ccc([C@@]23CCN(C(=O)c4ccc(Cl)c(Cl)c4)C[C@@H]2CN(C)C3)cc1OC` [CBK074308T] is lower in “% of control remaining” value: 123.218% for the first, 101.383% for the second.

Going from `O=C(OCCc1ccncc1)N1Cc2ccccc2C1` [CBK200141] to `O=C(CCCOc1ccccc1)Nc1ccc(N2CCNCC2)nc1` [CBK028270T], the “% of control remaining” value falls from 112.66% to 108.857%.

First: CN1CCN(c2cccc(-c3ccccc3Oc3ccccc3)n2)CC1 [CBK037598]
Second: c1ccc(CNc2cccc(N3CCNCC3)n2)cc1 [CBK003176T]
The “% of control remaining” value of the first is higher: 187.536% for the first, 139.284% for the second.

Compared with `CC(C)(C)c1ccc(C(=O)NCCNC(=O)c2nonc2N)cc1` [CBK268869], `CC(C)(C)c1ccc(C(=O)CSCC(=O)Nc2ccc3ccccc3c2)cc1` [CBK268394] is lower in “% of control remaining” value: 127.635% for the first, 123.864% for the second.

Compared with `Cc1c(C(=O)NCCN2CCCC(C(N)=O)C2)[nH]c2c(F)cccc12` (stereo not drawn) [CBK306877], `CC(=O)c1cc(C(=O)N2CCC(O)(c3ccccc3C)CC2)cs1` [CBK282532] is lower in “% of control remaining” value: 128.191% for the first, 107.705% for the second.

First: N#CCCN1CCCC2(C1)NCCc1c2[nH]c2ccccc12 (stereo not drawn) [CBK040031]
Second: COc1cccc(CN2CCCC3(C2)c2[nH]c4ccccc4c2CCN3C(C)=O)c1 (stereo not drawn) [CBK039634]
The “% of control remaining” value of the first is lower: 113.648% for the first, 123.079% for the second.

Going from `CC(C)C(NC(=O)CSc1n[nH]c(=O)n1Cc1ccccc1)c1ccc2c(c1)OCCCO2` (stereo not drawn) [CBK297875] to `CC(C)CCNC(=O)N1CCN(Cc2ccccc2)CC1` [CBK155657], the “% of control remaining” value falls from 126.405% to 117.864%.

Compared with `CC(O)CN(Cc1ccc(-n2cnc3ccccc32)cc1)Cc1ccc2c(c1)OCO2` (stereo not drawn) [CBK286475], `CCOc1ccc(NC(=O)c2c[nH]c(=O)n(-c3ccc(F)cc3)c2=O)cc1` [CBK287553] is higher in “% of control remaining” value: 76.2757% for the first, 133.151% for the second.

Going from `O=C(O)CCCN1C(=O)/C(=C/c2ccccc2[N+](=O)[O-])SC1=S` [CBK262801] to `O=C1Nc2ccc(Br)cc2/C1=C1/SC(=S)N(C(Cc2ccccc2)C(=O)O)C1=O` (stereo not drawn) [CBK263521], the “% of control remaining” value falls from 123.82% to 121.189%.

Compared with `Nc1ncc(-c2ccc(C(F)(F)F)cc2)nc1-c1ccc(C(=O)N2CCOCC2)cc1` [CBK090524], `COc1cccc(NC(=O)c2cc(-c3ccc(C(=O)N4CCOCC4)cc3)cnc2N)c1` [CBK160203] is lower in “% of control remaining” value: 126.8% for the first, 111.411% for the second.

First: O=C(c1ccc(SCc2cccnc2)c([N+](=O)[O-])c1)N1CCCCC1 [CBK294452]
Second: O=C(CN1C(=O)c2ccccc2C1=O)Nc1ccc(S(=O)(=O)N2CCCCCC2)cc1 [CBK266693]
The “% of control remaining” value of the first is higher: 91.3198% for the first, 84.9549% for the second.

Going from `CCS(=O)(=O)N1CC2C3c4ccccc4C(c4ccccc43)C2C1` (stereo not drawn) [CBK282328] to `CC(C)(N)C(=O)N1CC(C(=O)NCCN(Cc2ccccc2)S(C)(=O)=O)C(c2ccccc2)C1` (stereo not drawn) [CBK014706T], the “% of control remaining” value falls from 107.573% to 100.552%.

First: CC(=O)C1=C(C)N2C(=Nc3ccccc3C2(C)C)S1 [CBK010180C]
Second: COCCOc1nnc(C)c2ccccc12 [CBK019388]
The “% of control remaining” value of the first is higher: 119.581% for the first, 100.836% for the second.

Compared with `Cc1ccc2ccccc2c1CN(/N=N/c1nonc1C)c1nonc1C` [CBK262412], `CN(C)c1ccccc1-c1cc(Nc2ccc(C(C)(C)C)cc2)ncn1` [CBK090872] is higher in “% of control remaining” value: 108.278% for the first, 166.485% for the second.

Going from `CC(=O)N[C@H]1CC[C@]2(C)CCC([C@H](C)C(=O)NC3CCCC3)[C@H](O)[C@H]2[C@@H]1C` (stereo partly drawn) [CBK289436] to `CC(=O)N1CCC2(C/C=C/C[C@H]3CN(C(=O)Cc4cccc(F)c4)CC[C@H]3NC(=O)CNC2=O)CC1` [CBK292103], the “% of control remaining” value falls from 154.609% to 126.105%.

Going from `CCn1cnc2c1CC/C(=N\O)C2` [CBK010044] to `Cc1sc2ncn(CC(=O)NC3CCOc4ccccc43)c(=O)c2c1C` (stereo not drawn) [CBK304562], the “% of control remaining” value falls from 144.81% to 110.26%.

Compared with `CNC(=S)N(CCS(=O)(=O)c1ccc(Cl)cc1)Cc1cccs1` [CBK006431], `COc1ccc(C2=NNC(=O)c3cc4sccc4n3C2)cc1` [CBK284205] is lower in “% of control remaining” value: 99.3154% for the first, 91.7356% for the second.

First: COc1cccc([C@H]2CN(C(=O)c3ccccc3)[C@@H]3CCN(Cc4ccccc4F)C[C@H]23)c1 [CBK285608]
Second: Cn1cnnc1SCc1nc(N)nc(Nc2ccccc2)n1 [CBK018022]
The “% of control remaining” value of the first is lower: 85.5855% for the first, 111.678% for the second.

From publication PMC12040169 (PLOS Biology, 2025)
